Data as given in PubChem BioAssay AID1259327 (Drosophila RNAi Screening Center, 2017).

Test: 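Baseline ATP after transmembrane-protein gene knock-down with water vehicle only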
Cells: Drosophila S2R+ cells
Knock-down reagent: long dsRNA against Drosophila genes
Timing: 5 days (water added on day 4, read one day later)
Treatment: water added as vehicle, no metal, one day before read-out
Measured: 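Luciferase ATP signal per well, normalised to plate mean, duplicate average converted to z-score across plates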
Scale: ATP z-score: higher = more total ATP than typical wells; ATP luminescence: higher = more total ATP
Active means: 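Called active when the ATP z-score exceeds 1.5 or falls below -1.5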
Meaning of the calls: active = hit: ATP up or down; inactive = no clear ATP change
Here is one part, drawn at random, of about 3,100 reagents tested. 378 of them (12%) were called active. 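Hits include both directions; z-score sign shows ATP rise or fall; raw luminescence values are not plate-normalised.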 Unmarked entries are inactive. Names joined by + are all predicted targets of the reagent. No sequences are given here. Not given: the amount of reagent.

| gene knocked down | amplicon | ATP z-score, duplicate mean | ATP luminescence, replicate 1 (RLU) | ATP luminescence, replicate 2 (RLU) |
| --- | --- | --- | --- | --- |
| N | DRSC18685 | 0.231 | 7.10e5 | 6.48e5 |
| N | DRSC37611 | 1.21 | 7.24e5 | 6.39e5 |
| CG8860 | DRSC07291 | 0.498 | 6.95e5 | 6.34e5 |
| CG8860 | DRSC25286 | -0.164 | 8.20e5 | 8.40e5 |
| ppk19 | DRSC15321 | -1.52 (active) | 5.21e5 | 9.92e5 |
| ppk19 | DRSC39774 | -1.08 | 4.10e5 | 3.97e5 |
| fj | DRSC07619 | 3.13 (active) | 8.28e5 | 9.79e5 |
| fj | DRSC27535 | 0.711 | 9.05e5 | 1.25e6 |
| ppk16 | DRSC02736 | 0.0634 | 7.34e5 | 7.32e5 |
| CG12730 | DRSC17885 | -0.736 | 7.41e5 | 6.18e5 |
| CG12730 | DRSC39454 | 0.214 | 5.82e5 | 3.58e5 |
| PIG-Wa | DRSC00728 | -0.355 | 7.02e5 | 6.37e5 |
| Oatp58Db | DRSC04364 | 0.903 | 4.85e5 | 6.73e5 |
| ZnT35C | DRSC01959 | -1.39 | 5.40e5 | 6.17e5 |
| ZnT35C | DRSC39419 | -1.32 | 4.34e5 | 3.01e5 |
| CG9864 | DRSC07346 | 1.07 | 8.44e5 | 5.89e5 |
| CG9864 | DRSC28765 | -0.752 | 8.34e5 | 6.39e5 |
| LBR | DRSC04298 | -0.0444 | 6.67e5 | 7.87e5 |
| LBR | DRSC29462 | -0.777 | 7.60e5 | 7.01e5 |
| CG10073 | DRSC05961 | 2.31 (active) | 8.60e5 | 7.97e5 |
| CG10345 | DRSC14138 | -0.138 | 7.13e5 | 6.71e5 |
| rdo | DRSC02452 | 0.77 | 4.88e5 | 5.81e5 |
| rdo | DRSC25572 | 0.582 | 9.06e5 | 9.40e5 |
| CG42340 | DRSC18305 | 1.2 | 9.70e5 | 6.90e5 |
| CG42340 | DRSC23657 | 0.496 | 9.15e5 | 8.52e5 |
| Toll-4 | DRSC03458 | 0.0771 | 7.40e5 | 7.29e5 |
| Toll-4 | DRSC39440 | 0.571 | 4.88e5 | 4.93e5 |
| tadr | DRSC03177 | 0.338 | 7.59e5 | 7.75e5 |
| tadr | DRSC39590 | 0.682 | 4.73e5 | 5.51e5 |
| Acp95EF + Spase22-23 | DRSC14102 | -1.06 | 2.62e5 | 6.21e5 |
| NKCC | DRSC12140 | -0.457 | 6.74e5 | 6.91e5 |
| NKCC | DRSC12311 | -0.159 | 8.93e5 | 8.58e5 |

In a second layout: results already given
CG8860 [DRSC25286]
- ATP z-score, duplicate mean: -0.164
- ATP luminescence, replicate 1 (RLU): 8.20e5
- ATP luminescence, replicate 2 (RLU): 8.40e5

ppk19 [DRSC15321]
- ATP z-score, duplicate mean: -1.52 (active)
- ATP luminescence, replicate 1 (RLU): 5.21e5
- ATP luminescence, replicate 2 (RLU): 9.92e5

ppk19 [DRSC39774]
- ATP z-score, duplicate mean: -1.08
- ATP luminescence, replicate 1 (RLU): 4.10e5
- ATP luminescence, replicate 2 (RLU): 3.97e5

fj [DRSC07619]
- ATP z-score, duplicate mean: 3.13 (active)
- ATP luminescence, replicate 1 (RLU): 8.28e5
- ATP luminescence, replicate 2 (RLU): 9.79e5

fj [DRSC27535]
- ATP z-score, duplicate mean: 0.711
- ATP luminescence, replicate 1 (RLU): 9.05e5
- ATP luminescence, replicate 2 (RLU): 1.25e6

ppk16 [DRSC02736]
- ATP z-score, duplicate mean: 0.0634
- ATP luminescence, replicate 1 (RLU): 7.34e5
- ATP luminescence, replicate 2 (RLU): 7.32e5

CG12730 [DRSC17885]
- ATP z-score, duplicate mean: -0.736
- ATP luminescence, replicate 1 (RLU): 7.41e5
- ATP luminescence, replicate 2 (RLU): 6.18e5

CG12730 [DRSC39454]
- ATP z-score, duplicate mean: 0.214
- ATP luminescence, replicate 1 (RLU): 5.82e5
- ATP luminescence, replicate 2 (RLU): 3.58e5

PIG-Wa [DRSC00728]
- ATP z-score, duplicate mean: -0.355
- ATP luminescence, replicate 1 (RLU): 7.02e5
- ATP luminescence, replicate 2 (RLU): 6.37e5

Oatp58Db [DRSC04364]
- ATP z-score, duplicate mean: 0.903
- ATP luminescence, replicate 1 (RLU): 4.85e5
- ATP luminescence, replicate 2 (RLU): 6.73e5

ZnT35C [DRSC01959]
- ATP z-score, duplicate mean: -1.39
- ATP luminescence, replicate 1 (RLU): 5.40e5
- ATP luminescence, replicate 2 (RLU): 6.17e5

ZnT35C [DRSC39419]
- ATP z-score, duplicate mean: -1.32
- ATP luminescence, replicate 1 (RLU): 4.34e5
- ATP luminescence, replicate 2 (RLU): 3.01e5

CG9864 [DRSC07346]
- ATP z-score, duplicate mean: 1.07
- ATP luminescence, replicate 1 (RLU): 8.44e5
- ATP luminescence, replicate 2 (RLU): 5.89e5

CG9864 [DRSC28765]
- ATP z-score, duplicate mean: -0.752
- ATP luminescence, replicate 1 (RLU): 8.34e5
- ATP luminescence, replicate 2 (RLU): 6.39e5

The results go on:
| gene knocked down | amplicon | ATP z-score, duplicate mean | ATP luminescence, replicate 1 (RLU) | ATP luminescence, replicate 2 (RLU) |
| --- | --- | --- | --- | --- |
| CG10702 | DRSC02097 | 0.581 | 5.22e5 | 5.17e5 |
| CG10702 | DRSC36848 | -1.17 | 4.80e5 | 4.81e5 |
| CG10702 | DRSC36849 | -1.2 | 4.48e5 | 5.09e5 |
| CG12531 | DRSC19466 | 0.769 | 7.95e5 | 8.59e5 |
| CG12531 | DRSC27679 | -1.29 | 8.91e5 | 1.03e6 |
| CG3285 | DRSC00589 | -0.321 | 3.93e5 | 5.24e5 |
| CG31141 | DRSC13646 | -0.542 | 8.47e5 | 8.04e5 |
| CG31141 | DRSC29508 | 0.0987 | 8.69e5 | 8.03e5 |
| Gr22e | DRSC20912 | 0.292 | 8.05e5 | 7.10e5 |
| CG12490 | DRSC04123 | 0.287 | 6.75e5 | 8.37e5 |
| Kap-alpha1 | DRSC11356 | -0.203 | 9.09e5 | 8.32e5 |
| CG16700 | DRSC19755 | 0.327 | 7.72e5 | 7.84e5 |
| CG16700 | DRSC39560 | -1.35 | 3.63e5 | 3.85e5 |
| CG15814 | DRSC19730 | 0.864 | 8.62e5 | 7.30e5 |
| CG15814 | DRSC39869 | -2.99 (active) | 3.22e5 | 3.37e5 |
| CG11898 | DRSC27906 | 0.941 | 7.57e5 | 8.56e5 |
| CG11898 | DRSC39534 | 2.1 (active) | 6.26e5 | 5.60e5 |
| PMCA | DRSC17113 | -0.0671 | 9.34e5 | 8.42e5 |
| PMCA | DRSC17114 | 2.81 (active) | 1.28e6 | 1.25e6 |
| PMCA | DRSC17154 | 1.78 (active) | 8.98e5 | 8.80e5 |
| Gr98a | DRSC14719 | 0.331 | 8.26e5 | 6.98e5 |
| Eaat2 | DRSC00032 | -0.689 | 6.14e5 | 7.25e5 |
| Eaat2 | DRSC00749 | -0.384 | 4.18e5 | 4.89e5 |
| Eaat2 | DRSC26070 | 0.118 | 8.52e5 | 8.77e5 |
| Tsp66A + CG42660 + CG42661 | DRSC10233 | 0.158 | 9.22e5 | 9.11e5 |
| Best1 | DRSC26475 | -0.35 | 8.96e5 | 9.27e5 |
| Best1 | DRSC39616 | -0.32 | 4.38e5 | 4.49e5 |
| LpR2 | DRSC13726 | -0.499 | 6.94e5 | 6.82e5 |
| LpR2 | DRSC13728 | 0.349 | 9.79e5 | 9.06e5 |
| LpR2 | DRSC25588 | -0.454 | 7.52e5 | 8.36e5 |
| mge | DRSC08721 | -1.09 | 8.34e5 | 6.76e5 |
| Or56a | DRSC07495 | 0.859 | 7.25e5 | 6.69e5 |
| Or56a | DRSC39490 | -0.933 | 4.05e5 | 3.78e5 |
| Balat + asRNA:CR43469 | DRSC06852 | 0.455 | 7.34e5 | 8.26e5 |
| Balat + asRNA:CR43469 | DRSC39492 | 0.793 | 5.54e5 | 4.60e5 |
| Cad87A | DRSC16161 | 0.88 | 8.10e5 | 7.83e5 |
| Cad87A | DRSC29158 | -0.323 | 8.45e5 | 7.29e5 |
| CG6126 | DRSC15971 | -0.0316 | 7.28e5 | 6.78e5 |
| CG6126 | DRSC39462 | -1.23 | 4.06e5 | 3.40e5 |
| CG31213 | DRSC14312 | -0.388 | 6.56e5 | 7.48e5 |
| CG31213 | DRSC15647 | 0.737 | 3.13e5 | 8.91e5 |
| Mdr49 | DRSC07466 | -0.619 | 6.31e5 | 7.00e5 |
| Mdr49 | DRSC24065 | 0.264 | 9.12e5 | 8.54e5 |
| CarT | DRSC03196 | 0.687 | 4.99e5 | 5.57e5 |
| CarT | DRSC27070 | -1.34 | 7.46e5 | 9.52e5 |
| mol | DRSC01431 | 0.161 | 6.86e5 | 8.39e5 |
| mol | DRSC23967 | -0.673 | 7.00e5 | 8.34e5 |
| Zip88E | DRSC15562 | -0.151 | 2.50e5 | 8.53e5 |
| Zip88E | DRSC25826 | -0.479 | 7.88e5 | 7.93e5 |
| DopEcR | DRSC08529 | 0.113 | 6.87e5 | 8.01e5 |
| amrt | DRSC19378 | -1.09 | 5.58e5 | 6.63e5 |
| amrt | DRSC26943 | -1.63 (active) | 7.98e5 | 9.17e5 |
| CG10081 | DRSC05962 | 1.64 (active) | 7.11e5 | 8.26e5 |
| CG10081 | DRSC24787 | 0.511 | 9.07e5 | 9.20e5 |
| CG17821 | DRSC06696 | 0.588 | 6.49e5 | 6.96e5 |
| CG17821 | DRSC39871 | -3.36 (active) | 2.84e5 | 3.13e5 |
